From paper PMC6030175, “A senataxin-associated exonuclease SAN1 is required for resistance to DNA interstrand cross-links” come the findings set out here.

By UniProt entry, the sequences of proteins in these tests, tags left out.
UniProt Q7Z333: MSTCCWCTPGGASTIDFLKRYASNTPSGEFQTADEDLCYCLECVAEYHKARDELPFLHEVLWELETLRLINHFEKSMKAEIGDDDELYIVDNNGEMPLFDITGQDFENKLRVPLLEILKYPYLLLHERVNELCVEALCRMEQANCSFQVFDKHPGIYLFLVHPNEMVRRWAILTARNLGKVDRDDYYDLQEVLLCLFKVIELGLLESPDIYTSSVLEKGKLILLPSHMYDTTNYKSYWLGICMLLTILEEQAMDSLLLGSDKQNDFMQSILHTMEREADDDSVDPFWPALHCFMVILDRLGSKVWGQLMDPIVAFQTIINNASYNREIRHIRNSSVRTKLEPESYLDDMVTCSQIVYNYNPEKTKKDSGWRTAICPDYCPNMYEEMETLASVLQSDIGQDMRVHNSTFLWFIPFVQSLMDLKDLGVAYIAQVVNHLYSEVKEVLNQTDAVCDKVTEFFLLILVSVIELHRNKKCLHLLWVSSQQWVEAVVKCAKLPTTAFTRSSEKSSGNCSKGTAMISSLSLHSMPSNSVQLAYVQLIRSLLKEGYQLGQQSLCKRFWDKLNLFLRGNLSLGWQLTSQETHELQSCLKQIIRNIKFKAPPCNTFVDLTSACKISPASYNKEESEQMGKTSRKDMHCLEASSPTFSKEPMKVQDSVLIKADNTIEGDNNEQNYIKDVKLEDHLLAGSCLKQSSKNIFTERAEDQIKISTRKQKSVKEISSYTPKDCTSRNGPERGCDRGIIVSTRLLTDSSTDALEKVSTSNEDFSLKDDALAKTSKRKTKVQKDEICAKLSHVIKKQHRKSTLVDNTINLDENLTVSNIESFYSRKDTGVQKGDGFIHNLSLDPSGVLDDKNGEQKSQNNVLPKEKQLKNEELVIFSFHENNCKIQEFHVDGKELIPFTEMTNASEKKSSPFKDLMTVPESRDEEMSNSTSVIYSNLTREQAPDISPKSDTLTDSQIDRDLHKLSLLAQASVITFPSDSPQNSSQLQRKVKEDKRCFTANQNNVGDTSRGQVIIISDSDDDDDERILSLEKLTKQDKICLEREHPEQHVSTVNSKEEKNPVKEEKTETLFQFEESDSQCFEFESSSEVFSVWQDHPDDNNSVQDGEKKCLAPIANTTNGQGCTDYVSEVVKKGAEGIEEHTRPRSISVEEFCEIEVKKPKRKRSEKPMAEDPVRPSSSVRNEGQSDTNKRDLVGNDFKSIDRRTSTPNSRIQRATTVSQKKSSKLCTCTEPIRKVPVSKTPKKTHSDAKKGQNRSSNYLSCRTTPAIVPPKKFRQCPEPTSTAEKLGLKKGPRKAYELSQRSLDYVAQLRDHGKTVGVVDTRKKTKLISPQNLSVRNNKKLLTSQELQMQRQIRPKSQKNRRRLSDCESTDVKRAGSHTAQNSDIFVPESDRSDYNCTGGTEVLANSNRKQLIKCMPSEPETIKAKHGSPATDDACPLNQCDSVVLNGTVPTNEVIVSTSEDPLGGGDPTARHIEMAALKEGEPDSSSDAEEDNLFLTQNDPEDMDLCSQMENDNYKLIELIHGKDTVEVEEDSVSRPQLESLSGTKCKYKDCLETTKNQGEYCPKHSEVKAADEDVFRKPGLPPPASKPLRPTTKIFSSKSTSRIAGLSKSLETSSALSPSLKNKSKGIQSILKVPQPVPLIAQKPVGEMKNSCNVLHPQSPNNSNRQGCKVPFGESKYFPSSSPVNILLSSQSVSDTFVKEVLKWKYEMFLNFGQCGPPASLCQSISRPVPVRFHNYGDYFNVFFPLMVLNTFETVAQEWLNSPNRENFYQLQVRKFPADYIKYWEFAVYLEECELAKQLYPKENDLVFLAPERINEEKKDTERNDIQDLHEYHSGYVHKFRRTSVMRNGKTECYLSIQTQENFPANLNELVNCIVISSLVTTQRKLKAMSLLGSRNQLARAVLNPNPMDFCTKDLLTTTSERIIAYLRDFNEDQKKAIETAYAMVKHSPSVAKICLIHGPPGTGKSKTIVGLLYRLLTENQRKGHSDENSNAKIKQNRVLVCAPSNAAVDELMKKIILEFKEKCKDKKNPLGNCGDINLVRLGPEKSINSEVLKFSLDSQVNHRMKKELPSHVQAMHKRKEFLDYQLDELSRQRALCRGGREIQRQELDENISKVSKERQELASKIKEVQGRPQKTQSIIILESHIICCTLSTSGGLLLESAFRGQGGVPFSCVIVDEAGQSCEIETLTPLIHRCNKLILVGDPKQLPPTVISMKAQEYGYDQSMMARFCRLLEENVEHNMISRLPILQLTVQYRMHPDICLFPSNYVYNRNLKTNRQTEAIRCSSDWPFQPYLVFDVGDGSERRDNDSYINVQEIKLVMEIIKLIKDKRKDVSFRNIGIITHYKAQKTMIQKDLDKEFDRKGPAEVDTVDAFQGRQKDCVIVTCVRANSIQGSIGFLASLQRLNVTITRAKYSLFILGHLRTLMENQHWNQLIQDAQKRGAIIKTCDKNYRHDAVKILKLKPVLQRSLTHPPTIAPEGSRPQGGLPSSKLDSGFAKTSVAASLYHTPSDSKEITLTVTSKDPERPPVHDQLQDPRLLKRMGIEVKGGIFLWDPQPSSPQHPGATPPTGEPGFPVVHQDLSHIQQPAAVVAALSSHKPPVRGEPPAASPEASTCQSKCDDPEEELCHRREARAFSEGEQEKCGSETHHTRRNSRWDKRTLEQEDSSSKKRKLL

Assay [1] has as its target T1, SAN1WT-Strep2-FLAG (human SAN1-ssf) (human) (UniProt Q96EK7).
T1 sequence: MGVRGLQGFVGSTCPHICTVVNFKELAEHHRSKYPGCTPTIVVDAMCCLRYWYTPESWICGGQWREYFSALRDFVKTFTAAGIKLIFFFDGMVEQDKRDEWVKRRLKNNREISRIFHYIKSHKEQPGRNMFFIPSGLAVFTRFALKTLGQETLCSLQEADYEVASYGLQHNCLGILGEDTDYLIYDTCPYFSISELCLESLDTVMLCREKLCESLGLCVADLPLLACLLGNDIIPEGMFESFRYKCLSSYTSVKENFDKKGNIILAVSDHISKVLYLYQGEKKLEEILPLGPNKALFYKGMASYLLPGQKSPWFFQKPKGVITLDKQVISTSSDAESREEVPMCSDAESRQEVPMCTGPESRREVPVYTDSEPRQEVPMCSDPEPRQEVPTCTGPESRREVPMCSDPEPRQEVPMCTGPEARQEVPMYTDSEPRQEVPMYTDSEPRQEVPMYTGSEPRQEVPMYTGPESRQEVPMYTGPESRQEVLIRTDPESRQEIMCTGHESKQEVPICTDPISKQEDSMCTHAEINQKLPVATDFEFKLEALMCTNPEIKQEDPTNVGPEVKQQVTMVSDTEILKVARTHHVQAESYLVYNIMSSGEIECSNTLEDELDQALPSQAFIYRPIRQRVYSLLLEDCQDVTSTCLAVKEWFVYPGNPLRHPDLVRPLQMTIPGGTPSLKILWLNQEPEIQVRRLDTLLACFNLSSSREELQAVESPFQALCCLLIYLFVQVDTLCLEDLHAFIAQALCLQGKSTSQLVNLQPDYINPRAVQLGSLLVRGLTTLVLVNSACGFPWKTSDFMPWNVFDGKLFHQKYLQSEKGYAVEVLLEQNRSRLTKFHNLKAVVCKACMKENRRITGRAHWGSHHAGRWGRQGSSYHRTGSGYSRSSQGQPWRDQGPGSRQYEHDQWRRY
Put plainly: co-IP; soluble nuclear fraction of HeLa SETX-FLAG-GFP cells expressing SAN1-ssf or SAN1ΔRep-ssf, +/- 1 μM MMC; SAN1 captured on Strep-Tactin beads, eluted with desthiobiotin; immunoblot. A general note: Immunoblotting shows a protein as a band on a membrane.

Assay [2] concerns the target T2, endogenous SAN1 (HeLa) (human (endogenous in HeLa)) (UniProt Q96EK7).
T2 sequence: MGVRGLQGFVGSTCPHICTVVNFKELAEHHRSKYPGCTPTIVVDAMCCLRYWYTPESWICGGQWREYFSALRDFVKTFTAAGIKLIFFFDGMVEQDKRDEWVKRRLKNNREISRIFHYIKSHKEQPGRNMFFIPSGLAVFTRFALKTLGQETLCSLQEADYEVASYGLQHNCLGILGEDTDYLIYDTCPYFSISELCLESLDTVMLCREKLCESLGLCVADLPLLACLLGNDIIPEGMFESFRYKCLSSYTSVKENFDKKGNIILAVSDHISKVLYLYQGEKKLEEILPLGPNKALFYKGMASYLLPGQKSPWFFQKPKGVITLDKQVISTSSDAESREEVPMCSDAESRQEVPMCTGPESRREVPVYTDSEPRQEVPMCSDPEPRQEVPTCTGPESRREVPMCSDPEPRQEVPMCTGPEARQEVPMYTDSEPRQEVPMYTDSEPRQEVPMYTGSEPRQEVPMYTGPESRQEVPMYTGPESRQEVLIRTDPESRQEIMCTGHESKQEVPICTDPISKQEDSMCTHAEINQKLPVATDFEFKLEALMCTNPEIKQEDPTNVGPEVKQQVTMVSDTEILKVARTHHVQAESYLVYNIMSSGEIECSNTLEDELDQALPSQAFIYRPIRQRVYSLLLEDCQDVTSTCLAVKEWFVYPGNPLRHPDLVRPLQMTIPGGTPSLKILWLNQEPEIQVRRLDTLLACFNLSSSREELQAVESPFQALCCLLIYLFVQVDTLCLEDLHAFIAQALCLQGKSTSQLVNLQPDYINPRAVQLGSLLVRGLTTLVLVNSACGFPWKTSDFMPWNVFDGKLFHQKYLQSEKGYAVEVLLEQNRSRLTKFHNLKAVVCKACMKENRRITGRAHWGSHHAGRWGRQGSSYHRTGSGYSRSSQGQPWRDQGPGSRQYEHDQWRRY
The assay can be described thus: co-IP; HeLa soluble nuclear fraction after 1 μM MMC; endogenous SAN1 precipitated with anti-FAM120b antibody and protein A/G Sepharose; immunoblot for SETX.

Assay [3] concerns the target T3, full length murine SAN1 (yeast two-hybrid bait) (mouse) (UniProt Q6RI63).
T3 sequence: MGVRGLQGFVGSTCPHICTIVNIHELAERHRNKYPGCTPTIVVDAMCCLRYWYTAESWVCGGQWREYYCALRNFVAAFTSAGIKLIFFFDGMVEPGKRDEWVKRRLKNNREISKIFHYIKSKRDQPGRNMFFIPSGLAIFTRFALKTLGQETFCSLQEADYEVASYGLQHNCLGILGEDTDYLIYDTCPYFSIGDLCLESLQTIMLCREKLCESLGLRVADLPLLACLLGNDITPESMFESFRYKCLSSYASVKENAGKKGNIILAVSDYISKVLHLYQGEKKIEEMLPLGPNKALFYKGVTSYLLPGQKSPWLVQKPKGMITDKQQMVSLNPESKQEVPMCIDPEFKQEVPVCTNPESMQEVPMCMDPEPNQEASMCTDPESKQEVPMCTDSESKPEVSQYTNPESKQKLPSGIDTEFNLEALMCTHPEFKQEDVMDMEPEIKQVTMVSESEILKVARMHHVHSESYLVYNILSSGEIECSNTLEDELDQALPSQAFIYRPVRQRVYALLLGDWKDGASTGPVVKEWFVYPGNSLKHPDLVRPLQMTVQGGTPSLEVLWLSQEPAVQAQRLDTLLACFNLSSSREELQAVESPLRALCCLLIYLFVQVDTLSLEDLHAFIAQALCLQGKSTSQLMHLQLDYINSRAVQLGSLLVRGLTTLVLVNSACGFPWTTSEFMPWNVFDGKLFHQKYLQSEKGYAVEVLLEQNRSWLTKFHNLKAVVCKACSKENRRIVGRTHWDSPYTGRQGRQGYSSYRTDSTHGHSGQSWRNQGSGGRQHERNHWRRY
The assay can be described thus: two-hybrid; Hybrigenics genome-wide screen; full length murine SAN1 as bait against a mouse adult brain library.

Assay [4] deals with T4, SAN1-FLAG (human SAN1 in pRK7 with a C-terminal FLAG tag) (human) (UniProt Q96EK7).
T4 sequence: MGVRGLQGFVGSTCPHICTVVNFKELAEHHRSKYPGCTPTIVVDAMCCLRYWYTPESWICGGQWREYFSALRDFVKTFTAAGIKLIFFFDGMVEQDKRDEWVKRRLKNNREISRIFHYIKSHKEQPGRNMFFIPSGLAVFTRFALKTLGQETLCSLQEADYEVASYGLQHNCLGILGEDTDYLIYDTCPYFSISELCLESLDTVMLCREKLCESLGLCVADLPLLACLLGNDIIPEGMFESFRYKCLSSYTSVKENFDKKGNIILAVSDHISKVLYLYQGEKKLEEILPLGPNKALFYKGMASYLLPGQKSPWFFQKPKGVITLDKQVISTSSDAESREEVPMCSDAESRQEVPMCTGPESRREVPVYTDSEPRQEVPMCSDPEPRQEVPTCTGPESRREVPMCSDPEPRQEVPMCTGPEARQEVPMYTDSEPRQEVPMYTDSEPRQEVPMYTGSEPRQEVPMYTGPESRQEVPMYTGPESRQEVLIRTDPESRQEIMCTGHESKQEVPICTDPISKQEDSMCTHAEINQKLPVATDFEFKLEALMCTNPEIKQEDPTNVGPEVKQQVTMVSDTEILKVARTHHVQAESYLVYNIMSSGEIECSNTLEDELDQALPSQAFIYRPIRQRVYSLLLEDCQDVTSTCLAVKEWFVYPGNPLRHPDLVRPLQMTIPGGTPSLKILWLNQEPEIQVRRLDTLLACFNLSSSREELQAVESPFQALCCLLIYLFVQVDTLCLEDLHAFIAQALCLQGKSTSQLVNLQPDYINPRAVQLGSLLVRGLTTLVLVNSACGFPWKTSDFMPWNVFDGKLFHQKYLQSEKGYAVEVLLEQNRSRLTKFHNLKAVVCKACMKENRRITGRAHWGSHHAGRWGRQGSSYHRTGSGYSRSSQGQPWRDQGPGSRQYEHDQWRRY
The assay can be described thus: co-IP; 293T cells co-transfected; lysis in 25 mM HEPES pH 7.4, 150 mM NaCl, 0.5% Triton-X 100; anti-FLAG M2 agarose 1 h at 4 °C; immunoblot for FLAG and Myc.

No constants are given. Whether binding was seen depends on the method and setting. For some of these results: In cells and extracts the contact can be indirect. Some results given as binding are weak or reduced against the parent protein; the word gives no strength. For some of these results: Where a sequence is shown, tags or fusion partners need not be part of it.

Turning to “Senataxin-FLAG-GFP (full length SETX-Flag-GFP) (from UniProt Q7Z333 1-2677)”, the binding entry in assay [1] was “binds”.

In the case of “endogenous Senataxin (HeLa) (from UniProt Q7Z333 1-2677)”, the binding result in assay [2] is reported as “binds”.

B1: mSETX (876-1103), prey fragment from the mouse adult brain library (domain or fragment, UniProt A2AKX3 876-1103)
chain: DKLQIQEGRADDDLVSFTEVTDTLVKAPCEGHVKMVVESRDKEMRESTALTSNLVEGQVPHDSSKPLVAGRQIDLCNITLISQTTVIQFPSGLSKQNSFQLQKGDKRCLTANQNSAATCRGQVIVISDSDEEEDEDEDERSSSEENIKQSKACIGKDCSEHRSLAVNASVEKQLVKEEERYPVEFEDSESQVFEFESSSEVFSVWQDHKIDSKNSLQGEQKSYVTHVA
Consider B1, for which the binding entry in assay [3] is reported as “binds”.

B2: Myc-mSETX fragment (myc-SETX-SID fragment) (domain or fragment, UniProt A2AKX3 876-1103)
chain: DKLQIQEGRADDDLVSFTEVTDTLVKAPCEGHVKMVVESRDKEMRESTALTSNLVEGQVPHDSSKPLVAGRQIDLCNITLISQTTVIQFPSGLSKQNSFQLQKGDKRCLTANQNSAATCRGQVIVISDSDEEEDEDEDERSSSEENIKQSKACIGKDCSEHRSLAVNASVEKQLVKEEERYPVEFEDSESQVFEFESSSEVFSVWQDHKIDSKNSLQGEQKSYVTHVA
Take B2: the binding result in assay [4] is listed as “binds”.
